Results published in PubChem BioAssay AID504648 (National Center for Advancing Translational Sciences (NCATS), 2011).
The campaign covered roughly 390,000 compounds. About 610 (0.16%) were called active. The shares of active, inactive and inconclusive entries below differ from those in the screen. Calls follow the shape of the dose curve; as a rule, active = well fitted inhibition curve with a large enough effect; inconclusive = small, poorly fitted or top-dose-only effect, or effect the other way, or another doubt; inactive = no such curve, though single readings can be large or run the other way. Potencies beside an inconclusive call are fits to weak or partial responses and may not hold up.

Assay: Nrf2 qHTS screen for inhibitors: counterscreen for cytotoxicity
Details: A549 ARE-Fluc cells, CellTiter-Fluor viability, 18-24 h; activity change, negative = cytotoxicity: at 46 µM (top of the series)
In short: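 Cytotoxicity counterscreen: CellTiter-Fluor fluorescence was measured in A549 ARE_Fluc cells after 18-24 h of compound exposure in a concentration series. The subsequent BugLite luminescent read reports ARE-luciferase activity.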
% is scaled to controls: 0 for no effect and ±100 for the full control effect; potency is read from the fitted curve at half-maximal effect.

SMILES | Potency | activity change, negative = cytotoxicity
CC1(C)CC2(CCO1)CNC(=O)O2 (centres undefined) | inconclusive: 5.17 µM [falling, single point] | –
Cc1ccc(N(CN2CCCC2=O)C(=O)c2ccccc2)cc1 | – | inactive: 2.93%
C=C1CCN(C(Cc2ccccc2)C(=O)Nc2ccc(OC)cc2)S(=O)(=O)c2ccccc21 (centres undefined) | – | inactive: -0.657%
Cc1cc(C)c2nc(C(F)(F)F)nc(N3CC(C)OC(C)C3)c2c1 (centres undefined) | – | inactive: 10.8%
COc1ccccc1-c1nn(Cc2ccccc2)cc1C(=O)N1CCN(c2ncccn2)CC1 | inconclusive: 32.6 µM [falling, partial curve, poor fit] | –
COc1ccccc1NC(=O)CN1CCC(n2c(C)nc3cc(F)ccc32)CC1 | inconclusive: 3.26 µM [activator, partial curve, poor fit] | –
O=S(=O)(c1ccccc1)N1N=C(c2cccs2)CC1c1cccc(O)c1 (centres undefined) | – | inactive: -0.572%
COc1ccc2c(C)c(CC(=O)NCCc3ccccc3)c(=O)oc2c1OC | – | inactive: -3.27%
COCc1cc(=O)[nH]c(Nc2nc3ccc(C)cc3o2)n1 | inconclusive: 20.6 µM [falling, single point] | –
Cc1cc(C)n2nc(-c3ccccc3)cc2n1 | – | inactive: 8.87%
CCc1nnc(NC(=O)c2nc(S(=O)(=O)Cc3ccccc3)ncc2Cl)s1 | inconclusive: 29.1 µM [falling, single point] | –
COC(=O)\C(C(C)=O)=C(/C=C/C=C/N(C)C)N(C)C | inconclusive: 16.4 µM [falling, partial curve] | –
Cc1c(CCOC(=O)c2ccc(N3CCOCC3)c([N+](=O)[O-])c2)sc[n+]1CC#N | inconclusive: 20.6 µM [falling, single point] | –
COc1cc(OC)cc(C(=O)NCC(=O)N2CC=C(c3ccccc3)CC2)c1 | inconclusive: 6.51 µM [falling, partial curve, poor fit] | –
CCCCn1c(O)c(/C=C2\C=NN=C2c2ccccc2)sc1=S | inconclusive: 23.1 µM [falling, single point] | –
CC(C)c1nc2oc3c(NCC4CCCO4)ncnc3c2c2c1COC(C)(C)C2 (centres undefined) | – | inactive: 3.44%
CC(C)(C)c1cc(C(=O)N/N=C/c2ccc([N+](=O)[O-])s2)n[nH]1 | inconclusive: 23.1 µM [falling, single point] | –
COc1ccccc1NC(=O)c1cc2c(CO)cnc(C)c2oc1=Nc1cccc(C(N)=O)c1 | – | inactive: -2.4%
COc1ccc(-c2nc(SCC(=O)Nc3ccccc3)c(-c3ccc(F)cc3)[nH]2)cc1OC | inconclusive: 25.9 µM [falling, single point] | –
COC(=O)c1ccc(COc2ccccc2/C=C(\C#N)C(=O)Nc2c(C)cccc2C)cc1 | – | inactive: -21.1%
O=c1cccccc1NN=C1CCCCC1 | inconclusive: 29.1 µM [falling, single point] | –
CCN(CC(O)Cn1c2ccccc2c2ccccc21)S(=O)(=O)c1ccc(F)cc1 (centres undefined) | inconclusive: 29.1 µM [falling, single point] | –

Some of the entries above, reformatted.
SMILES	Potency	activity change, negative = cytotoxicity
COc1ccccc1NC(=O)CN1CCC(n2c(C)nc3cc(F)ccc32)CC1	inconclusive: 3.26 µM [activator, partial curve, poor fit]	–
O=S(=O)(c1ccccc1)N1N=C(c2cccs2)CC1c1cccc(O)c1 (centres undefined)	–	inactive: -0.572%

Later entries

SMILES | Potency | activity change, negative = cytotoxicity
CN(C)S(=O)(=O)Oc1cccc(C(=O)Nc2ccc(Cl)c(Cl)c2)c1 | inconclusive: 18.4 µM [falling, single point] | –
O=C(c1cnn2c1NC(c1ccco1)CC2C(F)(F)F)N1CCN(c2cccc(Cl)c2)CC1 (centres undefined) | inconclusive: 29.1 µM [falling, single point] | –
COC(=O)N/N=C/c1c(C)c(C(=O)c2ccc(F)cc2)n2ccccc12 | inconclusive: 25.9 µM [falling, partial curve, poor fit] | –
COc1ccc(N2CCN(C(c3cc4ccc(C)cc4[nH]c3=O)c3nnnn3C3CCCC3)CC2)cc1 (centres undefined) | inconclusive: 23.1 µM [falling, single point] | –
COc1ccc2nc(NC(=O)c3nc(S(=O)(=O)Cc4ccccc4F)ncc3Cl)sc2c1 | inconclusive: 20.6 µM [falling, single point] | –
Cc1ccc(-n2nc(C(=O)N3CCN(c4ccc(F)cc4)CC3)c(=O)n(C)c2=O)cc1 | – | inactive: -0.885%
c1coc(-c2ccnc(-n3cccc3)n2)c1 | – | inactive: 1.68%
CCN1C[C@@H]2[C@@H]3C(=O)N(Cc4ccccc4)C(=O)[C@@H]3[C@](Cc3ccccc3)(C(=O)OC)N2C1=NCc1ccccc1 | inconclusive: 29.1 µM [falling, single point] | –
COCCn1nnnc1C(C(C)C)N(Cc1ccccc1)Cc1cc2cc(OC)ccc2[nH]c1=O (centres undefined) | inconclusive: 20.6 µM [falling, single point] | –
CC(=O)N1CCc2c(sc3c2c(=O)n(-c2ccc(F)cc2)c(=O)n3Cc2cc(C)ccc2C)C1 | – | inactive: 0.974%
Cc1cccc(N(C)S(=O)(=O)c2ccc(-c3cc(C)no3)s2)c1 | inactive | –
CCC1CCCCN1S(=O)(=O)c1ccc(C(=O)Nc2nnc(C3=COCCO3)o2)cc1 (centres undefined) | inconclusive: 20.6 µM [falling, partial curve, poor fit] | –
COCCN(C(=O)COC(=O)COc1ccc2c(c1)CCC2)c1c(N)n(Cc2ccccc2)c(=O)[nH]c1=O | – | inactive: 0.639%
COc1ccc(NC(=O)c2cc(C(C)=O)n3ccccc23)cc1 | inconclusive: 18.4 µM [activator, partial curve, poor fit] | –
N#CC1=C(N)SC(N)=C(C#N)C1c1cccc(Oc2ccccc2)c1 | inconclusive: 23.1 µM [falling, single point] | –
Cc1ccc2c(c1)C(=O)C(=O)N2Cc1ccc(OCCC(C)C)cc1 | – | inactive: 1.33%
Cc1ccc(S(=O)(=O)N2CCCCC2)cc1NC(=O)CSc1nncn1-c1ccccc1 | – | inactive: -1.87%
O=C(CSc1nc(=O)n(Cc2cccnc2)c2c1CCC2)Nc1cccc(Cl)c1 | – | inactive: 6.06%
CCC/C(O)=C1\C(=O)CC(C)(C)CC1=Nc1ccc(OC)cc1OC | inconclusive: 3.26 µM [falling, partial curve, poor fit] | –
COc1ccc(C(=O)O)cc1NC(=S)NC(=O)/C=C/c1ccc(C(C)C)cc1 | – | inactive: 5.52%
O=C(COC(=O)c1cc([N+](=O)[O-])ccc1NCCO)c1ccccc1 | inconclusive: 20.6 µM [falling, partial curve, poor fit] | –
Cc1[nH]c2ccccc2c1N=Nc1ccc(F)cc1 | inconclusive: 29.1 µM [falling, single point] | –
